This data set can be described thus: Corrosion inhibition in brine, bubble test (LPR), inhibitor dosed to a model oil phase. As to conditions: 90% Forties synthetic brine/10% kerosene, CO2 saturated, 55° C.

“C12-C16 Cocoalkyl di-methyl benzyl quaternary amine”: the “% Protection” value runs as follows: (10 ppm active inhibitor dosed into kerosene phase) −1.1%; (25 ppm active inhibitor dosed into kerosene phase) 8.2%; (50 ppm active inhibitor dosed into kerosene phase) 3.9%.

The values above are taken from patent US8940227B2, “Use of polyester polyamine and polyester polyquaternary ammonium compounds as corrosion inhibitors” (Akzo Nobel Chemical International B.V., priority 2010, dated 2015).
